# Data reported in patent publication US20130011870A1, “Method For Assaying Diseases Characterized By Dyslipidemia” (priority 2010, published 2013).
# Experiments:
# [1] = Plasma levels in coronary heart disease patients vs healthy controls (Example 2, FIG. 4); design: species or system human; details: CHD n=89, controls n=98
# [2] = Estimated normal plasma (heparin) levels in a cohort of 100 healthy people; design: species or system human; details: 2.5%-97.5% percentile of 100 healthy people, d20:0 internal calibration
structure (smiles),measurement,setting,value
"CCCCCCCCCCCCC[C@@H](O)[C@@H](N)CO [d16:0, C16-sphinganine]",plasma level in CHD/atherosclerosis patients compared with healthy controls,[1],"by trend, lower"
"CCCCCCCCCCC/C=C/[C@@H](O)[C@@H](N)CO [d16:1, C16-sphingosine]",plasma level in CHD/atherosclerosis patients compared with healthy controls,[1],significantly lower
"CCCCCCCCCCCCCCC[C@@H](O)[C@H](C)N [m18:0, 1-deoxy-sphinganine]",estimated normal level in human plasma,[2],0.04 to 0.26 µM
same,plasma level in CHD/atherosclerosis patients compared with healthy controls,[1],not significantly different
"CCCCCCCCCCCCC/C=C/[C@@H](O)[C@H](C)N [m18:1, 1-deoxy-sphingosine]",estimated normal level in human plasma,[2],0.09 to 0.5 µM
same,plasma level in CHD/atherosclerosis patients compared with healthy controls,[1],not significantly different
